Data: US20120190819A1 (MEDICAL RESEARCH COUNCIL, published 2012)
No constants are given. Whether binding was seen depends on the method and setting. In cells and extracts the contact can be indirect. Some results given as binding are weak or reduced against the parent protein; the word gives no strength.

Assays:
[1] = target: T1, carboxymethylated papain on agarose beads (Calbiochem) (UniProt P00784); assay: papain-agarose pull-down, western blot
T1 sequence (carboxymethylated, looked up): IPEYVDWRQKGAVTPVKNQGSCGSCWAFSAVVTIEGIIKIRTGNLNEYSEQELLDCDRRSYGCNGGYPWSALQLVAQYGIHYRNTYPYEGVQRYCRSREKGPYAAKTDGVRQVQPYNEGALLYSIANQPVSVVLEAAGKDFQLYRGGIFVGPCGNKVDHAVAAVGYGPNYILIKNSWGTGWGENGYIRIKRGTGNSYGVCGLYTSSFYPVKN

[2] = target: T1, carboxymethylated papain on agarose beads (Calbiochem); assay: papain-agarose pull-down, western blot (FIG. 4A)

B1: wild type Stefin A (human, recombinant) (other)
chain: MIPGGLSEAKPATPEIQEIVDKVKPQLEEKTNETYGKLEAVQYKTQVVAGTNYYIKVRAGDNKYMHLKVFKSLPGQNEDLVLTGYQVDKNKDDELTGF
notes: Expressed in E. coli from pET30a(+) with a hexa-histidine tag; also called SteA; Cystatin A
[1]
  binding: binds
[2]
  binding: binds
